Measurements taken from publication PMC5803207.
Results are given in words; binding and its absence hold for the method and conditions named. For some assays here: In cells and extracts the contact can be indirect. Some binding calls cover weakened binding; strength is not graded here.

Protein sequences, listed by entry. Tags and fused reporters are not part of them. Lines headed by an entry give the natural chain unless they say otherwise; changes in a name come on top. Chains listed by the source or under a name are the forms on record and can include a tag or linker. Residues count along the entry.
UniProt P00367, residues 54-558: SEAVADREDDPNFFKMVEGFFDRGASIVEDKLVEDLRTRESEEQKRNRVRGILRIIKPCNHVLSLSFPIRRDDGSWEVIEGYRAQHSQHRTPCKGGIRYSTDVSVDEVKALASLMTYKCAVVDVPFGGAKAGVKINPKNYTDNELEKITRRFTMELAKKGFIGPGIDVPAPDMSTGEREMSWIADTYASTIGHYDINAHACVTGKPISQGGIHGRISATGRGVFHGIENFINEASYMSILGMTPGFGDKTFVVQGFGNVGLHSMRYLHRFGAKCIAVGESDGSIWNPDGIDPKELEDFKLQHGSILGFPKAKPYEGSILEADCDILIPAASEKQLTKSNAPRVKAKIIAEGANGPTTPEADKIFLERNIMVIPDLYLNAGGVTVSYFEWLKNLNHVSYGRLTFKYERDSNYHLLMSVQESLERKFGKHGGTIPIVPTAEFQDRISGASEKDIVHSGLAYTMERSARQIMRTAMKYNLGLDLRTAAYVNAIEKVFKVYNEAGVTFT
UniProt Q9NXA8: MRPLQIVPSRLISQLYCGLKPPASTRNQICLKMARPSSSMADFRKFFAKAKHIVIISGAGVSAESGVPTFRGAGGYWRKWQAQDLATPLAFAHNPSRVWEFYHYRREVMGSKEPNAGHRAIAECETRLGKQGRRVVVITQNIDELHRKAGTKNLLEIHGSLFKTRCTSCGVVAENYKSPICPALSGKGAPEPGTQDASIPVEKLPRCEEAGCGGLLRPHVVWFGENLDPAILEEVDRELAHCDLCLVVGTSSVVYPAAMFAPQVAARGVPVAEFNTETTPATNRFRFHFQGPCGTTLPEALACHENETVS
FLAG-SIRT5 H158Y (Q9NXA8, form named): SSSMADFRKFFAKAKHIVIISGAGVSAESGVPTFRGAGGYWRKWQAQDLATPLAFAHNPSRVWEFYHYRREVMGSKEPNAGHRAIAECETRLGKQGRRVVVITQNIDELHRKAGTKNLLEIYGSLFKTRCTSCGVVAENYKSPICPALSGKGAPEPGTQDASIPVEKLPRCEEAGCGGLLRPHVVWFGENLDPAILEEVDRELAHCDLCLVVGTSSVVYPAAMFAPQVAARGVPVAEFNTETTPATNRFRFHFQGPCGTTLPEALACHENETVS

Experiments:
[1] = target: GST-GLUD1 (UniProt P00367); test: pull-down; GST or GST-GLUD1 on glutathione-Sepharose 4B beads; 150 mM NaCl, 25 mM HEPES pH 7.6, 1 mM dithiothreitol; His-SIRT5 added for 4-8 h at 4 °C; western blot with anti-His and anti-GST; both purified
[2] = target: FLAG-SIRT5 H158Y (UniProt Q9NXA8); test: co-IP; anti-FLAG antibody coupled to Amino Link Plus resin (Pierce Co-IP Kit); lysates of HCT116 and LoVo cells stably expressing FLAG-SIRT5 WT or H158Y; overnight at 4 °C; western blot with anti-GLUD1

binding [1] | binding [2] | Substance
binds | – | His-SIRT5 (from UniProt Q9NXA8 1-310) (enzyme)
– | binds | endogenous glutamate dehydrogenase 1 (GLUD1) (from UniProt P00367 54-558) (enzyme)
